Some of the results follow. These are further read-outs of the screen, such as a control signal, another cell line or another target. No call is given for them. Most of these compounds were active or inconclusive in the main read-out, so they are no random draw. Words in brackets tell the shape of the fitted curve; partial curves, single points and poor fits give uncertain potencies.
Assay: qHTS Assay for Lipid Storage Modulators in Drosophila S3 Cells;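 as to cell number change: cells counted by Cell Tracker Red CMTPX staining in the red channel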
Settings: BODIPY lipid droplet fluorescence, 18-24 h; for cell number change: measured here: cell count max response, cells fed with added oleic acid
Outline: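 Drosophila S3 cells loaded with oleic acid (400 uM, as added) and compounds at several concentrations; lipid droplets imaged by 488-nm laser-scanning cytometry, 500–530 nm intensity and object ratio to cell channel. Percent activity normalized to 20 uM Triacsin C.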

[1] = measured here: cell number channel AC50, cells fed with added oleic acid
[2] = measured here: lipid fluorescence (Fed channel) AC50, cells fed with added oleic acid

SMILES	cell number change	AC50 [1]	AC50 [2]
COc1ccc(OC)c(/C=N/NC(=O)Cc2nc3ccccc3[nH]2)c1	62.5%	29.1 µM [rising, single point]	5.8 µM [rising, partial curve]
COC(=O)c1cc(OC)c(OC)cc1NC(=O)CN1C(=O)c2ccccc2C1=O	–	5.17 µM [rising, partial curve]	29.1 µM [falling, partial curve]
N#Cc1ccccc1NC(=S)NC(=O)c1cccnc1	-17.1%	–	6.51 µM [falling, single point]
COc1cccc(-c2nc(NCc3ccco3)c3ccccc3n2)c1O	-15.4%	–	29.1 µM [falling, single point]
Cc1nc(NC(=O)CN(C)S(=O)(=O)c2ccc(Cl)cc2)sc1C	82.5%	29.1 µM [rising, single point]	29.1 µM [rising, partial curve]
COc1ccccc1NC(=O)c1ccccc1-c1ccccc1C(=O)O	6.96%	–	–
Cc1ccc(-n2c(O)c(/C=N/c3ncn[nH]3)c3ccccc3c2=O)cc1	-22.7%	–	–
CCOC(=O)C(=NC1CCS(=O)(=O)C1)NNc1cc(Cl)ccc1Cl (centres undefined)	4.04%	–	11.6 µM [rising, single point]
Cc1ccc(N2CC(NC(=O)C(=O)c3c(C)[nH]c4ccccc34)CC2=O)cc1C (centres undefined)	–	0.58 µM [rising, single point]	0.517 µM [rising, partial curve, poor fit]
Cc1ccc(S(=O)(=O)N2CCN(C(=O)COC(=O)CNC(=O)c3ccc(Cl)cc3Cl)CC2)cc1	10.7%	–	5.17 µM [falling, full curve]
C=CCn1c(=N)c(C(=O)NCCCOC)cc2c(=O)n3cccc(C)c3nc21	30%	0.461 µM [rising, full curve, poor fit]	0.103 µM [rising, full curve, poor fit]
O=C1CCCC2=C1C(c1ccccn1)Nc1ccc(C(=O)c3ccccc3)cc1N2 (centres undefined)	-2.87%	–	6.51 µM [rising, single point]
CCN(CC)C(=O)Sc1cccc2cccnc12	-19.3%	0.0231 µM [falling, full curve, poor fit]	–
Cc1cc(C)n(-c2ccc(C(=O)OCC(=O)Nc3ccc(Cl)c(S(=O)(=O)N(C)C)c3)cc2)n1	11.4%	0.184 µM [rising, full curve, poor fit]	6.51 µM [rising, single point]
CCN(CC)CCN(C(=O)c1cc2ccccc2cc1OC)c1nc2ccc(OC)cc2s1	40.4%	10.3 µM [rising, partial curve, poor fit]	20.6 µM [rising, partial curve]
CC(=O)c1cc2c(cc1NC(=O)CCc1c(C)nc3ncnn3c1C)OCO2	-11.3%	–	0.0651 µM [falling, full curve, poor fit]
CCCCCNC(=O)CC1Nc2c3ccccc3nc(=S)n2C1=O (centres undefined)	14.4%	–	0.651 µM [falling, full curve, poor fit]
Cc1cc2ccccc2n2c(SCC(=O)Nc3ccc(S(=O)(=O)N4CCC(C)CC4)cc3)nnc12	9.7%	–	14.6 µM [rising, single point]
Oc1cc(O)c2c(c1)O[C@H](c1ccc(O)c(O)c1)[C@H](O)C2	1.5%	–	–

SMILES	cell number change	AC50 [1]	AC50 [2]
COc1ccc2oc(C(=O)Nc3ccccc3N3CCOCC3)c(C)c2c1	-16.7%	0.00461 µM [falling, full curve, poor fit]	–
Cc1ccc(-c2c3c(=O)n(C)c(=O)n(C)c3cn2-c2ccccc2O)cc1	66.9%	29.1 µM [rising, single point]	–
CCN1CCN(c2oc(COc3ccc(Cl)cc3)nc2C#N)CC1	10.5%	–	0.82 µM [falling, single point]
CC(=O)Nc1sc(C)c(C)c1C(=O)OCC(=O)N(CC(C)C)c1c(N)n(Cc2ccccc2)c(=O)[nH]c1=O	11%	0.58 µM [rising, full curve]	–
O=C(Cc1ccccc1)N1CCN(c2ccccc2F)CC1	-4.23%	–	–
O=C(OCC(=O)N1CCCC1)c1ccc(Cl)nc1	3.76%	–	0.92 µM [falling, full curve, poor fit]
COc1cc2c(=O)nc3n(c2cc1OC)C(c1ccccc1)N=C(N)N3 (centres undefined)	-129%	2.06 µM [falling, partial curve]	–
O=C(C1CCCN(S(=O)(=O)Cc2ccccc2)C1)N1CCc2ccccc21 (centres undefined)	64.5%	8.2 µM [rising, partial curve, poor fit]	3.26 µM [rising, partial curve]
COc1cc(/C=N/Nc2snc(SC)c2C#N)cc(OC)c1OC	51%	16.4 µM [rising, single point]	25.9 µM [rising, single point]
COc1ccc(-c2cn3c4c(sc3n2)CCCC4)cc1	119%	16.4 µM [rising, partial curve]	6.51 µM [rising, single point]
CCOC(=O)C(CC)n1nc(C)n2c(cc3occc32)c1=O (centres undefined)	–	0.184 µM [rising, full curve, poor fit]	–
Oc1ccccc1C(=S)N1CCCCCC1	22.7%	–	–
Cc1ccc(OCC(=O)NCCO)cc1C	-2.14%	–	–
COc1cccc(C(=O)/C=C/Nc2cc(C)ccc2O)c1	-68.2%	32.6 µM [falling, single point]	2.31 µM [falling, partial curve, poor fit]
O=C(CCc1ccccc1)N1CCCC(Nc2ccc(F)cc2)C1 (centres undefined)	-7.43%	–	–
Cn1cc(C(=O)N/N=C/C(Br)=C\c2ccccc2)ccc1=O	-5.17%	–	29.1 µM [falling, single point]
Cc1ccc(O)c(C(=O)c2cnc3onc(-c4ccc(F)cc4)c3c2)c1	-0.402%	–	–
CC(C(=O)Nc1ccc(S(=O)(=O)N2CCCC2)cc1)N1CCN(C(=O)c2ccco2)CC1 (centres undefined)	–	6.51 µM [rising, single point]	6.51 µM [rising, single point]

An excerpt from above in order of formula weight, low to high.
SMILES	cell number change	AC50 [1]	AC50 [2]
COc1ccc(-c2cn3c4c(sc3n2)CCCC4)cc1	119%	16.4 µM [rising, partial curve]	6.51 µM [rising, single point]
COc1ccc(OC)c(/C=N/NC(=O)Cc2nc3ccccc3[nH]2)c1	62.5%	29.1 µM [rising, single point]	5.8 µM [rising, partial curve]
CCCCCNC(=O)CC1Nc2c3ccccc3nc(=S)n2C1=O (centres undefined)	14.4%	–	0.651 µM [falling, full curve, poor fit]
Cc1ccc(-n2c(O)c(/C=N/c3ncn[nH]3)c3ccccc3c2=O)cc1	-22.7%	–	–
Cc1ccc(O)c(C(=O)c2cnc3onc(-c4ccc(F)cc4)c3c2)c1	-0.402%	–	–
COc1cc2c(=O)nc3n(c2cc1OC)C(c1ccccc1)N=C(N)N3 (centres undefined)	-129%	2.06 µM [falling, partial curve]	–
Cc1nc(NC(=O)CN(C)S(=O)(=O)c2ccc(Cl)cc2)sc1C	82.5%	29.1 µM [rising, single point]	29.1 µM [rising, partial curve]
Cc1cc(C)n(-c2ccc(C(=O)OCC(=O)Nc3ccc(Cl)c(S(=O)(=O)N(C)C)c3)cc2)n1	11.4%	0.184 µM [rising, full curve, poor fit]	6.51 µM [rising, single point]
